PubChem BioAssay AID1259291 – Sanger Institute | 2017

- Assay: 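Genes needed for HT29 colorectal cancer cell survival or for sensitivity to drugs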 (primary screen)
- System: HT29 human colorectal cancer cells
- Knock-down reagent: siRNA pool against human genes
- Conditions: anchor drugs added a day after transfection: BYL719 at 1 µM, cetuximab at 5 µg/ml or trametinib at 10 nM, or DMSO vehicle alone
- Measured: 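Replicate-averaged viability relative to non-targeting pool, robust z-score based on control wells, plus per-drug synergy score for 1 µM BYL719, 5 µg/ml cetuximab and 10 nM trametinib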
- Reading the numbers: robust z-score, knock-down alone: higher = more viable cells
- Active means: 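a knock-down alone scoring under -3 on robust z-score is called essential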
- Meaning of the calls: active = essential (knock-down alone); inactive = no change alone
Shown is a random part of 794 deposited reagents. In the full data, 15 (1.9%) were called active. 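Calls rest on knock-down alone; drug synergy scores do not affect them; drugs added a day post-transfection, DMSO vehicle as comparison.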 Further read-outs or replicates are left out here. Reagent sequences are not shown. Not given: the amount of reagent, the time to read-out.

STRADA showed robust z-score, knock-down alone 0.552; inactive.
PKIA showed robust z-score, knock-down alone -0.383; inactive.
Against STK39, the values are robust z-score, knock-down alone -1.96; inactive.
Against SOS2, the entry reads robust z-score, knock-down alone 0.552; inactive.
After knock-down of MAPK14, the screen gave robust z-score, knock-down alone 0.201; inactive.
Against RIPK2, the values are robust z-score, knock-down alone 0.552; inactive.
MAP4K1 scored robust z-score, knock-down alone 0.552; inactive.
PKLR gave robust z-score, knock-down alone -1.01; inactive.
CDKL5 scored robust z-score, knock-down alone 0.552; inactive.
With knock-down of NUCKS1, the record shows robust z-score, knock-down alone 0.552; inactive.
BTK showed robust z-score, knock-down alone 0.552; inactive.
For CIB2, the entry reads robust z-score, knock-down alone 0.552; inactive.
For TNNI3K, the values are robust z-score, knock-down alone 0.552; inactive.
Against GRK7, the values are robust z-score, knock-down alone 0.552; inactive.
ETNK1 gave robust z-score, knock-down alone 0.552; inactive.
Against BUB1, the values are robust z-score, knock-down alone -0.264; inactive.

Ordered by “robust z-score, knock-down alone” (ascending): some entries from above
STK39 → robust z-score, knock-down alone = -1.96; call = inactive
SOS2 → robust z-score, knock-down alone = 0.552; call = inactive

Additional entries:
After knock-down of PI4KB, the screen gave robust z-score, knock-down alone -0.0822; inactive.
With knock-down of GAK the results were robust z-score, knock-down alone 0.552; inactive.
For CERK, the values are robust z-score, knock-down alone 0.552; inactive.
Knock-down of STKLD1 resulted in: robust z-score, knock-down alone -1.44; inactive.
With knock-down of WNK2 the results were robust z-score, knock-down alone 0.552; inactive.
TPK1 scored robust z-score, knock-down alone -4; active.
CDK16 scored robust z-score, knock-down alone 0.552; inactive.
Knock-down of TP53 gave: robust z-score, knock-down alone -1.07; inactive.
CDKN1A gave robust z-score, knock-down alone 0.552; inactive.
For PLK2 the deposit lists robust z-score, knock-down alone 0.552; inactive.
With knock-down of PIP4K2C, the record shows robust z-score, knock-down alone 0.141; inactive.
Silencing of PSKH2 gave: robust z-score, knock-down alone 0.552; inactive.
